# Measured values from the supplement of paper PMC8728848.
# This is one part of the list.
# B1: AntigenI/IIC123 (Streptococcus mutans), C9E3B4 (protein)
# chain: MASMTGGQQMGRIHFHYFKLAVQPQVNKEIRNNNDINIDRTLVAKQSVVKFQLKTADLPAGRDETTSFVLVDPLPSGYQFNPEATKAASPGFDVTYDNATNTVTFKATAATLATFNADLTKSVATIYPTVVGQVLNDGATYKNNFTLTVNDAYGIKSNVVRVTTPGKPNDPDNPNNNYIKPTKVNKNENGVVIDGKTVLAGSTNYYELTWDLDQYKNDRSSADTIQKGFYYVDDYPEEALELRQDLVKITDANGNEVTGVSVDNYTNLEAAPQEIRDVLSKAGIRPKGAFQIFRADNPREFYDTYVKTGIDLKIVSPMVVKKQMGQTGGSYENQAYQIDFGNGYASNIIINNVPKINPKKDVTLTLDPADTNNVDGQTIPLNTVFNYRLIGGIIPADHSEELFEYNFYDDYDQTGDHYTGQYKVFAKVDITFKDGSIIKSGAELTQYTTAEVDTAKGAITIKFKEAFLRSVSIDSAFQAESYIQMKRIAVGTFENTYINTVNGVTYSSLEHHHHHH
# How the values were obtained:
# Assay in all cases: glycan array binding signal (z-score within array); higher = stronger binding
# Settings in all cases: glycan notation: IUPAC condensed, linker removed
# [1] = target: Gal(a1-3)Gal(b1-4)GlcNAc(b1-2)Man
# Summary of the method: (§1)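 From the Consortium for Functional Glycomics database, 3228 arrays were curated, keeping only those whose protein sequence was available. Binding is given as a within-array Z-score averaged across arrays sharing a protein sequence and across linkers. Negative Z-scores can be read as non-binding.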
# [2] = target: Gal(a1-3)Gal(b1-4)GlcNAc(b1-2)Man(a1-3)[Gal(a1-3)Gal(b1-4)GlcNAc(b1-2)Man(a1-6)]Man(b1-4)GlcNAc(b1-4)GlcNAc
# Summary of the method: as §1
# [3] = target: Gal(a1-3)Gal(b1-4)GlcNAc(b1-3)GalNAc
# Summary of the method: as §1
# [4] = target: Gal(a1-3)Gal(b1-4)GlcNAc(b1-6)GalNAc
# Summary of the method: as §1
# [5] = target: Gal(a1-3)Gal(b1-4)[Fuc(a1-3)]GlcNAc
# Summary of the method: as §1
# [6] = target: Gal(a1-3)Gal(b1-4)[Fuc(a1-3)]GlcNAc(b1-2)Man(a1-3)[Gal(a1-3)Gal(b1-4)[Fuc(a1-3)]GlcNAc(b1-2)Man(a1-6)]Man(b1-4)GlcNAc(b1-4)GlcNAc
# Summary of the method: as §1
# Gal(a1-3)GalNAc = target: Gal(a1-3)GalNAc
# Summary of the method: as §1
# [7] = target: Gal(a1-3)[Gal(a1-4)]Gal(b1-4)GlcNAc
# Summary of the method: as §1
# [8] = target: Gal(a1-4)Gal(b1-3)GlcNAc(b1-2)Man(a1-3)[Gal(a1-4)Gal(b1-3)GlcNAc(b1-2)Man(a1-6)]Man(b1-4)GlcNAc(b1-4)GlcNAc
# Summary of the method: as §1
# Gal(a1-4)Gal(b1-4)Glc = target: Gal(a1-4)Gal(b1-4)Glc
# Summary of the method: as §1
# Gal(a1-4)Gal(b1-4)GlcNAc = target: Gal(a1-4)Gal(b1-4)GlcNAc
# Summary of the method: as §1
# [9] = target: Gal(a1-4)Gal(b1-4)GlcNAc(b1-2)Man(a1-3)[Gal(a1-4)Gal(b1-4)GlcNAc(b1-2)Man(a1-6)]Man(b1-4)GlcNAc(b1-4)GlcNAc
# Summary of the method: as §1
# [10] = target: Gal(a1-4)Gal(b1-4)GlcNAc(b1-3)Gal(b1-4)Glc
# Summary of the method: as §1
# Gal(a1-4)GlcNAc = target: Gal(a1-4)GlcNAc
# Summary of the method: as §1
# Gal(a1-6)Glc = target: Gal(a1-6)Glc
# Summary of the method: as §1
# Gal(b1-2)Gal = target: Gal(b1-2)Gal
# Summary of the method: as §1
# Gal(b1-3)Gal = target: Gal(b1-3)Gal
# Summary of the method: as §1
# Gal(b1-3)Gal(b1-4)GlcNAc = target: Gal(b1-3)Gal(b1-4)GlcNAc
# Summary of the method: as §1
# Gal(b1-3)GalNAc = target: Gal(b1-3)GalNAc
# Summary of the method: as §1
# [11] = target: Gal(b1-3)GalNAc(a1-3)[Fuc(a1-2)]Gal(b1-4)Glc
# Summary of the method: as §1
# [12] = target: Gal(b1-3)GalNAc(a1-3)[Fuc(a1-2)]Gal(b1-4)GlcNAc
# Summary of the method: as §1
# Gal(b1-3)GalNAc(b1-3)Gal = target: Gal(b1-3)GalNAc(b1-3)Gal
# Summary of the method: as §1
# [13] = target: Gal(b1-3)GalNAc(b1-3)Gal(a1-4)Gal(b1-4)Glc
# Summary of the method: as §1
# [14] = target: Gal(b1-3)GalNAc(b1-4)Gal(b1-4)Glc
# Summary of the method: as §1
# [15] = target: Gal(b1-3)GalNAc(b1-4)[Neu5Ac(a2-3)]Gal(b1-4)Glc
# Summary of the method: as §1
# Gal(b1-3)GlcNAc = target: Gal(b1-3)GlcNAc
# Summary of the method: as §1
# [16] = target: Gal(b1-3)GlcNAc(a1-3)Gal(b1-4)GlcNAc
# Summary of the method: as §1
# [17] = target: Gal(b1-3)GlcNAc(a1-6)Gal(b1-4)GlcNAc
# Summary of the method: as §1
# Gal(b1-3)GlcNAc(b1-2)Man = target: Gal(b1-3)GlcNAc(b1-2)Man
# Summary of the method: as §1
# [18] = target: Gal(b1-3)GlcNAc(b1-2)Man(a1-3)[Gal(b1-3)GlcNAc(b1-2)Man(a1-6)]Man(b1-4)GlcNAc(b1-4)GlcNAc
# Summary of the method: as §1
# [19] = target: Gal(b1-3)GlcNAc(b1-2)Man(a1-3)[Gal(b1-3)GlcNAc(b1-2)Man(a1-6)]Man(b1-4)GlcNAc(b1-4)[Fuc(a1-6)]GlcNAc
# Summary of the method: as §1
# [20] = target: Gal(b1-3)GlcNAc(b1-2)Man(a1-3)[GlcNAc(b1-4)][Gal(b1-3)GlcNAc(b1-2)Man(a1-6)]Man(b1-4)GlcNAc(b1-4)GlcNAc
# Summary of the method: as §1
# [21] = target: Gal(b1-3)GlcNAc(b1-2)[Gal(b1-3)GlcNAc(b1-6)]Man(a1-6)[Gal(b1-3)GlcNAc(b1-2)Man(a1-3)]Man(b1-4)GlcNAc(b1-4)GlcNAc
# Summary of the method: as §1
# [22] = target: Gal(b1-3)GlcNAc(b1-3)Gal(b1-3)GlcNAc
# Summary of the method: as §1
# [23] = target: Gal(b1-3)GlcNAc(b1-3)Gal(b1-4)Glc
# Summary of the method: as §1
# [24] = target: Gal(b1-3)GlcNAc(b1-3)Gal(b1-4)GlcNAc
# Summary of the method: as §1
# [25] = target: Gal(b1-3)GlcNAc(b1-3)Gal(b1-4)GlcNAc(b1-2)Man(a1-3)[Gal(b1-3)GlcNAc(b1-3)Gal(b1-4)GlcNAc(b1-2)Man(a1-6)]Man(b1-4)GlcNAc(b1-4)GlcNAc
# Summary of the method: as §1
binder,measurement,setting,value
B1,glycan array binding signal (z-score),[1],-0.684
same,glycan array binding signal (z-score),[2],1.61
same,glycan array binding signal (z-score),[3],-1.13
same,glycan array binding signal (z-score),[4],-0.833
same,glycan array binding signal (z-score),[5],-0.216
same,glycan array binding signal (z-score),[6],0.406
same,glycan array binding signal (z-score),Gal(a1-3)GalNAc,0.389
same,glycan array binding signal (z-score),[7],-0.033
same,glycan array binding signal (z-score),[8],0.406
same,glycan array binding signal (z-score),Gal(a1-4)Gal(b1-4)Glc,-0.27
same,glycan array binding signal (z-score),Gal(a1-4)Gal(b1-4)GlcNAc,0.444
same,glycan array binding signal (z-score),[9],-0.485
same,glycan array binding signal (z-score),[10],-0.714
same,glycan array binding signal (z-score),Gal(a1-4)GlcNAc,-0.557
same,glycan array binding signal (z-score),Gal(a1-6)Glc,-0.653
same,glycan array binding signal (z-score),Gal(b1-2)Gal,-0.762
same,glycan array binding signal (z-score),Gal(b1-3)Gal,-1.1
same,glycan array binding signal (z-score),Gal(b1-3)Gal(b1-4)GlcNAc,0.338
same,glycan array binding signal (z-score),Gal(b1-3)GalNAc,-0.062
same,glycan array binding signal (z-score),[11],-0.468
same,glycan array binding signal (z-score),[12],-0.841
same,glycan array binding signal (z-score),Gal(b1-3)GalNAc(b1-3)Gal,-0.382
same,glycan array binding signal (z-score),[13],-0.393
same,glycan array binding signal (z-score),[14],0.016
same,glycan array binding signal (z-score),[15],-0.777
same,glycan array binding signal (z-score),Gal(b1-3)GlcNAc,-0.67
same,glycan array binding signal (z-score),[16],-0.666
same,glycan array binding signal (z-score),[17],-1.82
same,glycan array binding signal (z-score),Gal(b1-3)GlcNAc(b1-2)Man,-0.078
same,glycan array binding signal (z-score),[18],1.89
same,glycan array binding signal (z-score),[19],1.19
same,glycan array binding signal (z-score),[20],-0.382
same,glycan array binding signal (z-score),[21],1.06
same,glycan array binding signal (z-score),[22],-0.162
same,glycan array binding signal (z-score),[23],0.287
same,glycan array binding signal (z-score),[24],-0.59
same,glycan array binding signal (z-score),[25],-0.721

# Pulled one by one from the list above, 2 records:
binder,measurement,setting,value
B1,glycan array binding signal (z-score),[23],0.287
same,glycan array binding signal (z-score),[11],-0.468
